Six molecules from publication doi:10.1101/2021.05.18.444627 (bioRxiv, 2021) can be followed below.

Protein sequences, listed by entry. Tags and fused reporters are not part of them. Lines headed by an entry give the natural chain unless they say otherwise; changes in a name come on top. Residues count along the entry.
UniProt P10218, 174-194: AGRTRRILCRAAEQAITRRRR
UniProt P10215, 22-42: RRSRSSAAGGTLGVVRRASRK
UniProt P10215, whole entry: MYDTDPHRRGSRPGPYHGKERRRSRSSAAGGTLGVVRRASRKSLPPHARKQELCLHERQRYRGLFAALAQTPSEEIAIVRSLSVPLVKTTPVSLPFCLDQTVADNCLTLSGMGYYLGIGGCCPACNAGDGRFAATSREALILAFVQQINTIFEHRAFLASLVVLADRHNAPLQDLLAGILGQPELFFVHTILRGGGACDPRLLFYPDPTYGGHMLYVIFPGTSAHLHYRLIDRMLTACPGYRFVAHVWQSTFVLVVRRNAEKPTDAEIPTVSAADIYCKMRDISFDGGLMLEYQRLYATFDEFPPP

In assay [1] the target is HSV-1 UL34 residues 1-220, the UL34 chain of NEC220 (HSV-1) (UniProt P10218). Description: tandem affinity co-purification.
Assay [2] deals with UL31^(1-C51) peptide, spin-labelled (HSV-1 UL31 MPR residues 1-50 with a C-terminal cysteine) (HSV-1) (UniProt P10215). Description: DEER spectroscopy.
Assay [3] deals with UL34^(174-194) peptide, unlabelled (HSV-1) (UniProt P10218). The assay can be described thus: cross-linking.
Assay [4] addresses UL34^(174-194) peptide, spin-labelled at the native cysteine C182 (HSV-1) (UniProt P10218). Description: DEER spectroscopy.
Assay [5] addresses UL34^(174-194) peptide, unlabelled (HSV-1) (UniProt P10218). The assay can be described thus: cross-linking. This is another data set of the same source.
Assay [6] deals with UL31^(41-50) peptide (UL31 mini-MPR) (HSV-1). The assay can be described thus: cross-linking.
Assay [7] has the same target. Description: cross-linking. This is another data set of the same source.

Where two headings read alike, the source gives them in different places. Results are given in words; binding and its absence hold for the method and conditions named. Some results given as binding are weak or reduced against the parent protein; the word gives no strength.

“His6-SUMO-UL31 (HSV-1 strain F UL31, residues 1-306), the UL31 chain of NEC220 (from UniProt P10215 1-306)”: the binding entry in assay [1] was “binds”.

For the molecule “UL31^(1-C51) peptide, spin-labelled (HSV-1 UL31 MPR residues 1-50 with a C-terminal cysteine) (from UniProt P10215 1-50)”, the binding entry in assay [2] is “no binding (tested: 50 μM)”.

With “UL31^(22-42) peptide (middle of the UL31 MPR) (from UniProt P10215 22-42)”, the binding entry in assay [3] is “no binding (condition: without SUVs)”.

Regarding “UL34^(174-194) peptide, spin-labelled at the native cysteine C182 (from UniProt P10218 174-194)”, in assay [4], the binding entry is on record as “no binding (tested: 50 μM)”.

In the case of “UL34^(174-194) peptide, unlabelled (from UniProt P10218 174-194)”, the binding result in assay [3] and in assay [5] was “no binding (tested: 50 μM)” in each case.

B1: UL31^(41-50) peptide (UL31 mini-MPR) (peptide)
peptide: RKSLPPHARK
modifications: N-terminal acetyl; C-terminal amide
As for B1, the values for the binding result in assay [3], in assay [6] and in assay [7] were “no binding (condition: without SUVs)”, “no binding (tested: 50 μM)” and “no binding (tested: 50 μM)”, respectively.
